For 1 substance, binding results are on record in PMC6362308.

These are yes or no findings as the source states them, for the method shown. In cells and extracts the contact can be indirect. A result given as binding can be weak or reduced; the word gives no strength.

In this assay the target is T1, Endogenous human RECQL4 (RecQ-like helicase 4) in HeLa nuclear extract (human (endogenous in HeLa)) (UniProt O94761).
T1 sequence: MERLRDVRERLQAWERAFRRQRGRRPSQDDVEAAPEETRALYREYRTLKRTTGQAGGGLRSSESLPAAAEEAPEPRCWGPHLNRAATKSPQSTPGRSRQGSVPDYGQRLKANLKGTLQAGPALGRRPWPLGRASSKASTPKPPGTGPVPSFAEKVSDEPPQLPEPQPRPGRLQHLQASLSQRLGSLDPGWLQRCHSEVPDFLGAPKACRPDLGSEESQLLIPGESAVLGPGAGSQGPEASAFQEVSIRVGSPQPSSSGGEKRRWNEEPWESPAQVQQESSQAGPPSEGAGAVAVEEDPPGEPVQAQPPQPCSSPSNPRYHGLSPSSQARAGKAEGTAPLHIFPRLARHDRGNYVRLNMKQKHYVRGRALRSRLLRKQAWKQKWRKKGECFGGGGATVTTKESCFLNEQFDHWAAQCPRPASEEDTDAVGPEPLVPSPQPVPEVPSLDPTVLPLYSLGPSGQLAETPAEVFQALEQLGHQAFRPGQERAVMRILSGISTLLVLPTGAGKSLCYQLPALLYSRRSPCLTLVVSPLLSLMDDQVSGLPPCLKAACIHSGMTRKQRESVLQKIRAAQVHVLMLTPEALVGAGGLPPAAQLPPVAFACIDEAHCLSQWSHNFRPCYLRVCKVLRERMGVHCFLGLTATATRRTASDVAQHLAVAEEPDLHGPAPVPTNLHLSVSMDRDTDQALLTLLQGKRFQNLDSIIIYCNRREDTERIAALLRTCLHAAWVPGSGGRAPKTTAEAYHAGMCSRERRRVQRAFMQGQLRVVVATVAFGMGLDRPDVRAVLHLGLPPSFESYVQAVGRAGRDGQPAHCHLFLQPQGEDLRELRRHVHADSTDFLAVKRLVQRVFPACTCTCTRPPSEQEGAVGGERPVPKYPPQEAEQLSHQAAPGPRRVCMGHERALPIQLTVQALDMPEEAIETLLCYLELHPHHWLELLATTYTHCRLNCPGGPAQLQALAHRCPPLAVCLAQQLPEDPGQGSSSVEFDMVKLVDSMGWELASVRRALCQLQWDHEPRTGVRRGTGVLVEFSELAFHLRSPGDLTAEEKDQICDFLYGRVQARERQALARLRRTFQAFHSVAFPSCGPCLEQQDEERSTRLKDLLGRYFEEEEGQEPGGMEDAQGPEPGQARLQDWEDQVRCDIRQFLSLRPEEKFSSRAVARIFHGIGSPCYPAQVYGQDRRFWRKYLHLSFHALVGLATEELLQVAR
In words: co-sedimentation; recombinant importin α/β complex added to HeLa nuclear extract; read out as loss of RECQL4 from the microtubule pellet (Fig 1A); only the binder purified.

In the case of recombinant importin α/β complex, the binding result is “binds”.
